PubChem BioAssay AID1347426 (Functional Genomics Laboratory (NCATS/FGL), 2020)
Out of some 31,000 sequences screened, about 1,400 (4.5%) were called active.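 Rule for the calls: active = median seed-adjusted z-score above 1 or below -1; inactive = the rest.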 The list shows a part of the results.

assay: Novel Modifiers of Survival Motor Neuron (SMN) Protein: Gene Identification via Genome-wide siRNA Screen; conditions: HEK293T SMN2-luciferase reporter, siRNA knockdown, 72 h; actives lie on both sides;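 note: luminescence tracks full-length SMN protein made from the SMN2 reporter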
Procedure, shortened: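 Each of three siRNAs per gene is reverse-transfected (1 pmol) into reporter HEK293T cells whose luciferase output tracks SMN protein level. After 72 h culture, ONE-Glo luminescence is control-normalized, log10-transformed and MAD-standardized; Common Seed Analysis deprioritizes seed-driven hits.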

Sequence	median seed-adjusted z-score
GAGCUGAAUGUUAUGUUUATT against RAB6A	inactive: 0.102
GCACCAUACAGGAAGAUUATT against MRCL3	inactive: -0.00909
CGAAUACCUAAAACGUAUATT against NAE1	inactive: -0.453
CACUGGUACGACUCGCUUATT against RHPN1	inactive: 0.161
GGAUGUCCAGAGGCACUAATT against POLA2	inactive: -0.114
CAAUGGUCCAAGUCUAACATT against EEF1E1	active: -1.45
GGAAGAUGGUUAUUGACAUTT against PDE4B	inactive: 0.546
GGAGAUCUCAGACGAAUUATT against AGA	inactive: -0.0433
GAUAUAAAGUCAUGAAGAATT against USP30	inactive: -0.646
GCAGUACACUACCAACAGATT against ALAS1	active: -1.15
CACCAUGAAUCUUUCGAAATT against MAP7	inactive: -0.22
GACCUAUACUCAUUCUGCATT against ZBTB41	inactive: 0.173
CAACAUAUCUGCACAGGUATT against FLVCR2	inactive: -0.336
GGACGAAGAAAUUAGCAGATT against QKI	inactive: -0.206
GCUGUGACAUGGUCUACAATT against BSN	inactive: 0.116
CCAUCCUGGAAAUACCCUATT against SERPINA12	inactive: -0.382
CCAAAUCUCCUUAUACGAUTT against AFF3	inactive: -0.00277
GAAUUGGACUGGAUGCUAATT against DGKK	inactive: 0
GAAUCUUGCCCGUCUAUAATT against RSC1A1	inactive: 0.438
CAGCUAUCAGAAUAGGUAUTT against CREBBP	inactive: 0
GGCAGAACUGUUUAUGGAATT against ZNF280D	inactive: 0.374
CGUCCGUGAUUGAUGAUGATT against BAP1	inactive: -0.374

Sequence	median seed-adjusted z-score
ACAAGAUCGUCUUCUUUAATT against MMP17	inactive: -0.653
GGCUCAUAUAUUCAACGUATT against USO1	inactive: 0.21
CGAUUAAGUUAUUACGGUUTT against TOP2B	inactive: 0.225
UCCUAUGAAUGUCCACAAUTT against ZNF443	inactive: 0.0544
UGGUAACCAUUGUUAUUAUTT against KLRG1	inactive: -0.0324
AGAAGAAUAAUUCCAUGAATT against OBFC2A	inactive: 0.406
AGGCAAACGUGUUCGUGCATT against IGFALS	inactive: 0.0888
GUUUCACACCAGCCUGGAATT against PYCARD	inactive: 0.117
CGCCCACGUCAUUUGCAUATT against PYY	inactive: 0.437
ACGACGACAUUGUGGUUCATT against NFKBIB	inactive: 0.00673
GCACUAUUAAAAUUCCCGATT against SBF2	inactive: 0.569
GGAUUUUCAGAGGAUUGAATT against ZRANB1	inactive: -0.347
CCUCCAUUCUCUUUGACCATT against RPS6KA4	inactive: 0.193
CCUGAACAUUGGACCCUGUTT against CPSF1	active: 3.29
GGCCGCUGCUUGUUUGUCATT against SLC13A3	inactive: 0.0434
CUGUUUAACUGUGUAGGAATT against NOG	inactive: 0.328
GCGAAUAUGUAGAGAUGUATT against NFE2	inactive: -0.0226
CAAUCACUAUAGUCCAUGATT against KCNJ2	inactive: -0.0834
GGGUAUCAUUAAUGGGAUUTT against CLASP2	inactive: 0.157
CCACCAGUUUUAGUACCCATT against FLVCR1	inactive: 0.197
CCUGGACAGUUUGAAGCAATT against KCTD15	inactive: 0.982
GGAUUUGCAUCCGUGAUUATT against SLC5A8	inactive: 0.441

Sequence	median seed-adjusted z-score
CAGACUCCCUCAUCACCAATT against ALAS1	active: -1.15
CUACGUGUCUUAUCGAAGATT against SORCS3	inactive: -0.151
CCAGGACUUUGUUACUGCATT against TIGD6	inactive: -0.443
GCACGAGGCUGGUACAGUUTT against MFNG	inactive: 0.377
CAGGCUCAAUGAAUCGAAUTT against KHSRP	inactive: -0.856
CAUUGUGAGCUAUAACGAUTT against CDH10	inactive: 0
UGACAGUGACGGAUGCUAATT against OPLAH	inactive: -0.233
CCUUAGGACUGAUGGAGAATT against CPT1C	inactive: -0.458
GCCUAUGCUGAACUCAUUATT against USP4	inactive: -0.0365
GACUCGACCUUCUCAGAGATT against GRHL1	inactive: 0.115
UGAUGCUGGUUUCUACUGUTT against MS4A6E	inactive: -0.341
GGUUGACAUUACUACUGAATT against IRAK4	inactive: -0.288
GGUAUACAGAUGACAACAATT against DMC1	inactive: -0.00876
CCCUGUCAUCUAUGCUCUATT against CNR2	inactive: 0.33
AGGACUUUGAGGAACCGGATT against TNK2	inactive: -0.574
CCAAGAUAUUCUUCGAGAATT against CADPS2	inactive: -0.0213
AGUCCUCGGUGGUAACCAATT against P2RX3	inactive: -0.44
GCAUGCUCAUGGGUUACAATT against ZNF451	inactive: 0
GAACUGACCUCUACACUAATT against AGBL2	inactive: -0.796
CAACAUUGAUGUUCCUCCATT against ZNF704	inactive: -0.15
GGCUUCUCCCAGAGCAUCATT against CLCNKA	inactive: -0.398
GAAUAUUCUCGAUUUAAUATT against PPP1R3D	inactive: 0

Sequence	median seed-adjusted z-score
CCUGCAGAAUAACCUGAUATT against OPTC	inactive: 0.0953
GGAAGACCCAAAGAGGGAATT against SNX11	inactive: 0.00451
CCACCUACCUGAAUGUCCATT against ORM1	inactive: 0.206
GGGAGUGACAUAUCCAAGATT against CCL26	inactive: -0.01
CAGCCUUCGUGAUAGCUCATT against ADAMTS14	inactive: 0.209
CGACUAUCCUGGACCACAUTT against WNT3	inactive: -0.839
AAUAAGUUAUUUAGACAGATT against NAT8L	inactive: 0
GAAAGAUCUGCAUCCAUAATT against ADAM21	inactive: 0
GCUAUGAGCUAAGGGAGAATT against PPIL5	inactive: 0
CGGCUAUCAUUGAAAGCGATT against FSD1	inactive: 0.685
GAUGGUGAAUAGUCGAUUUTT against PCSK1	inactive: 0.154
CUCUAGCUGAUAAACCUCATT against TRIM23	inactive: -0.318
GGAUAUCCAUAUCAAACCATT against RG9MTD2	inactive: -0.599
GCCUUUAGUAGGUCAAGAATT against ZNF721	inactive: 0.404
CGAGGGCAUAUAUGAAGAATT against TRAF2	inactive: -0.00463
AGAUUUGGAUACCGCAAAATT against PPIL5	inactive: 0
CCGGAUACCUCAACUCUCATT against NIT1	inactive: -0.528
GCCGAAAAGAGAUGGAUAATT against MYO18B	inactive: -0.597
GGAAGCUACAUGACAGUAATT against RASEF	inactive: 0.299
GCUGCGUGCUCAUCCGAAATT against APRT	inactive: 0.0278
AGGAAGGUGUGAAGAAGAATT against SNX15	inactive: -0.152
CUUCCUUCGUCUUCACCUATT against FOS	inactive: 0.343

Sequence	median seed-adjusted z-score
GGAGAGGCAGAUCAAGAUATT against HOXB6	inactive: -0.168
GGUCAAACAAAUAAAAGUUTT against TNFRSF10D	inactive: 0.0234
AGAUGGAUGCUCACCCGAATT against LIMD1	inactive: 0.587
CAUCAGACAUUCACAACAATT against UST	inactive: 0.265
CUUGGAAUAUAUAUCGAUATT against CNIH4	inactive: -0.0718
GGUUAUGAACUUUGGAUAATT against GPR103	inactive: 0
CCAGCAUUGCGGAAGUGCATT against CACNB3	inactive: 0.573
CUGCAAUUCUGUAUACCUATT against FLJ12529	inactive: 0.852
CAGCAUUCAUUGAUCAAUUTT against ZBTB6	inactive: -0.225
GAAUAGAACUUCGUUCUUUTT against IPP	inactive: 0.298
GCAGGUAACUCAUCCACGUTT against RHBDL3	inactive: 0.56
GGCGGAUGCUGUUACGGAUTT against IL8RB	inactive: -0.387
GGCUCAACAUGAAGCAGAATT against RECQL4	inactive: 0.475
CGCUUAACAUUGGAGUUCATT against ATG7	inactive: -0.328
CGGCAAGGUGGAUUACAAATT against MYH9	inactive: -0.517
AGUUCAACUUCGAAGUACATT against TFAP2B	inactive: 0
GCGGUGAUCUUGCUGUAUUTT against ANAPC2	inactive: -0.116
GGCUCGUAUUUUCUGGUUUTT against ACHE	inactive: 0
CCGGCAUCUUUGCUACCUATT against AQP3	inactive: -0.0863
GUAUCGUCCUGAAUAUGAATT against GPN1	inactive: -0.14

Some of the entries so far, bar-delimited:
Sequence | median seed-adjusted z-score
GAAUAGAACUUCGUUCUUUTT against IPP | inactive: 0.298
GCAGGUAACUCAUCCACGUTT against RHBDL3 | inactive: 0.56
GGCGGAUGCUGUUACGGAUTT against IL8RB | inactive: -0.387
GGCUCAACAUGAAGCAGAATT against RECQL4 | inactive: 0.475
